Results are given in words; binding and its absence hold for the method and conditions named. For part of these data: Binding can be weak; no strength is given.

The results in this text go back to PMC7210777.

Assay in all cases: two-hybrid; CIPK proteins fused to the GAL4 BD (pGBKT7, strain Y187), CBL10 proteins fused to the GAL4 AD (pGADT7, strain Y2HGold); mated diploids, serial dilutions on SD-LW without histidine, 5 d; one orientation only
The target of assay [1] is T1, AtCIPK16 (CBL-interacting protein kinase 16 of Arabidopsis) (Arabidopsis thaliana) (UniProt Q9SEZ7).
T1 sequence: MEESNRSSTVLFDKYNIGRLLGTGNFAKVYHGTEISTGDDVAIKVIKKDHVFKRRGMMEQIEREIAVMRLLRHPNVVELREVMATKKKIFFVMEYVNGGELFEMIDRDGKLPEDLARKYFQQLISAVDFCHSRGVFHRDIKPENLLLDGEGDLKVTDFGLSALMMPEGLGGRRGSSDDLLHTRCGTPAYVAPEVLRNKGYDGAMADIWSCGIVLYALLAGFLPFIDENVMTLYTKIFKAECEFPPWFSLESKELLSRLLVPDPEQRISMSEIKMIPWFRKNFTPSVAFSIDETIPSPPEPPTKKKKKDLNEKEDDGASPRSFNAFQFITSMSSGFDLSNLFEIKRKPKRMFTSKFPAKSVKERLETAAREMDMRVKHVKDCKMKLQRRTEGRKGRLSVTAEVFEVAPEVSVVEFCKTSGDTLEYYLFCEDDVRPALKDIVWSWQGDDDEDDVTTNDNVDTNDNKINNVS

For assay [2], the target named is T2, AtCIPK13 (CBL-interacting protein kinase 13 of Arabidopsis) (Arabidopsis thaliana) (UniProt O22971).
T2 sequence: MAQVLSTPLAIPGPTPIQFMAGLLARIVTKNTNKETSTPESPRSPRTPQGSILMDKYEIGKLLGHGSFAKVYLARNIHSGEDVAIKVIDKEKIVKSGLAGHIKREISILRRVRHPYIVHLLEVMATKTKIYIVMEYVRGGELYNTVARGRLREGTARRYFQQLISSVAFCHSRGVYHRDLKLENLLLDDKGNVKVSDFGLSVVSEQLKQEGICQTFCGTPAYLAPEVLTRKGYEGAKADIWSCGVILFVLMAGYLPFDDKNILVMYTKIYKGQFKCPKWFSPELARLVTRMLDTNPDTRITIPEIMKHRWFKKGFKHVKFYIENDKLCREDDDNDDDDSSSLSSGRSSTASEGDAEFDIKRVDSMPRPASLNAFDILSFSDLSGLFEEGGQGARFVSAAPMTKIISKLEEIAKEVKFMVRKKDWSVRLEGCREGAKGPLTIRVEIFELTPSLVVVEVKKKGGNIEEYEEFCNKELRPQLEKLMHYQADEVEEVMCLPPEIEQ

Assay [3] addresses T3, AtCIPK6 (CBL-interacting protein kinase 6 of Arabidopsis) (Arabidopsis thaliana) (UniProt O65554).
T3 sequence: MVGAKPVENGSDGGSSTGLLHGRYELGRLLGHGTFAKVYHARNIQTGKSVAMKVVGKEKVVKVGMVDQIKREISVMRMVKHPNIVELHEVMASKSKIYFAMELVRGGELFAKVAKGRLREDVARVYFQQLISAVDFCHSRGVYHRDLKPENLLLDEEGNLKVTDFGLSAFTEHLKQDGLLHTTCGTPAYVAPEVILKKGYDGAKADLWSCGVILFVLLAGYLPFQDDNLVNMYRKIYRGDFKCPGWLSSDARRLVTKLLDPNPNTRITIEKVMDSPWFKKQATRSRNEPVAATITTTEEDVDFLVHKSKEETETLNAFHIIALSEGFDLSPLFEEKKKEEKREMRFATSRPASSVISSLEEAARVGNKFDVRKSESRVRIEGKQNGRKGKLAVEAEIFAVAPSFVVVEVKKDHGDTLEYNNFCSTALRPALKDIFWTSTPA

Assay [4] concerns the target T4, AtCIPK18 (CBL-interacting protein kinase 18 of Arabidopsis) (Arabidopsis thaliana) (UniProt Q9LP51).
T4 sequence: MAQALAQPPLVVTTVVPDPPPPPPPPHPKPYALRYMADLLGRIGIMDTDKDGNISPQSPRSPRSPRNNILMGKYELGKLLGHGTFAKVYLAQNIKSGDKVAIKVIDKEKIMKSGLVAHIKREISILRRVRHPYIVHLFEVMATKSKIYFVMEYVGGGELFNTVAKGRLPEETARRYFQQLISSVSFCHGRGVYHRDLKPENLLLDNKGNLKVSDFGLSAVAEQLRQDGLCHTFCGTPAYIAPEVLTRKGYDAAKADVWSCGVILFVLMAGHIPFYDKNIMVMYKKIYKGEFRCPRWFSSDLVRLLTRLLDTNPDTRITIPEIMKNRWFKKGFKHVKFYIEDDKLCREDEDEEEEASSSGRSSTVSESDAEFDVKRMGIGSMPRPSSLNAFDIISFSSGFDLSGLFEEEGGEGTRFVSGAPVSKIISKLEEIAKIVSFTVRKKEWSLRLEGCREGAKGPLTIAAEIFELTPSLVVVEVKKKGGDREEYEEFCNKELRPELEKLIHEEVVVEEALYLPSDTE

For “SpCBL10b-1 (CALCINEURIN B-LIKE10b-1 of Schrenkiella parvula)”, the binding result in assay [1] is “no binding”; in assay [2] it was “no binding”; in assay [3] it was “binds”; in assay [4] it was “binds”.

As for “SpCBL10b-2 (CALCINEURIN B-LIKE10b-2 of Schrenkiella parvula)”, the binding entry in assay [1] was “no binding”; in assay [2], “no binding”; in assay [3], “no binding”; in assay [4], “binds”.

Take “EsCBL10a (CALCINEURIN B-LIKE10a of Eutrema salsugineum)”: the binding entry in assay [4] was “binds”.
